Test results as given in PMC11956013, “Structure–Activity Relationships and Evaluation of 2-(Heteroaryl-cycloalkyl)-1H-indoles as Tauopathy Positron Emission Tomography Radiotracers” (Journal of Medicinal Chemistry, 2025).

Sequences of proteins named here, by UniProt entry; tags and fusion partners are left off. Residues count along the entry.
UniProt P14867, 28-456: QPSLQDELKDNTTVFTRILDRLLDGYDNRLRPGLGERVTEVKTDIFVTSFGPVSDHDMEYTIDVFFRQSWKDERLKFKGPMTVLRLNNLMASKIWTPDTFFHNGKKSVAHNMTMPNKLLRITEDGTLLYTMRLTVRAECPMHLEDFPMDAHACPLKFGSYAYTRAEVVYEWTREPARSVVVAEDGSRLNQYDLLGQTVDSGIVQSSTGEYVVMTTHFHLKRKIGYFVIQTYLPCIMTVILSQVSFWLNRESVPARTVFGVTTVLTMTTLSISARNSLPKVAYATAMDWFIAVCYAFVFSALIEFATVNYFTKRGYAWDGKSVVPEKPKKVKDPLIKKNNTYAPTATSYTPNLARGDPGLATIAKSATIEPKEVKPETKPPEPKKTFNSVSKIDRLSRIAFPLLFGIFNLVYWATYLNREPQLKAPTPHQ
UniProt P18507, 40-475: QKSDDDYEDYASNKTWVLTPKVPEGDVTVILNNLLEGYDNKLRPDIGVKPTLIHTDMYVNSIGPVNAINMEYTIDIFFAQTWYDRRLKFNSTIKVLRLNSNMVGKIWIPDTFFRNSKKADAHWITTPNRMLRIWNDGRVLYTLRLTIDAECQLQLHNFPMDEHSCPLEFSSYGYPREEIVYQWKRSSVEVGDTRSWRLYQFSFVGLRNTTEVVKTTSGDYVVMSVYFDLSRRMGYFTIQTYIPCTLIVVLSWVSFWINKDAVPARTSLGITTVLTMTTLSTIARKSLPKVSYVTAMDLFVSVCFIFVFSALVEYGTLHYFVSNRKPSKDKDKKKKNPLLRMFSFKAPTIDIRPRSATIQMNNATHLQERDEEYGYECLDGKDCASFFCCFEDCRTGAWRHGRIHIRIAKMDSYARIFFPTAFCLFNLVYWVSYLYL

Biological target: BZD (central)(h) (Homo sapiens, UniProt P14867+P18507)
Settings: reference compound

CN1C(=O)CN=C(c2ccccc2)c2cc(Cl)ccc21 [Diazepam]
nH, Specific binding: 2.004
